This passage reports binding results from PMC4657329.

Results are given in words; binding and its absence hold for the method and conditions named. In cells and extracts the contact can be indirect. Some entries that bind do so weakly or less than the wild type. Sequences can lack the tags named with a protein.

T1: ^HABim1 (S. cerevisiae) (UniProt P40013)
T1 sequence: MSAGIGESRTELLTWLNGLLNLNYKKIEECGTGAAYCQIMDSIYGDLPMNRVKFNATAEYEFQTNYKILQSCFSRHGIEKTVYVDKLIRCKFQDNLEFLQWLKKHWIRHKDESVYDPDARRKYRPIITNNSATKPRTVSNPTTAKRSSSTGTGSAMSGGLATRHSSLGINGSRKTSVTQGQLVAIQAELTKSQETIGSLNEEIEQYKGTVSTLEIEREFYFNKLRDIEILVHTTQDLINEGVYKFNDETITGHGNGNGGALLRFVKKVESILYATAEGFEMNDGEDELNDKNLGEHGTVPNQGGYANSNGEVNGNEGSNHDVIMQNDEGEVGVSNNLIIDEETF

B1: Δ37-Kip2^13myc (domain or fragment, UniProt P28743 38-706)
chain: LTRNSIRSTSNSGSQSISASSTRSNSPLRSVSAKSDPFLHPGRIRIRRSDSINNNSRKNDTYTGSITVTIRPKPRSVGTSRDHVGLKSPRYSQPRSNSHHGSNTFVRDPWFITNDKTIVHEEIGEFKFDHVFASHCTNLEVYERTSKPMIDKLLMGFNATIFAYGMTGSGKTFTMSGNEQELGLIPLSVSYLFTNIMEQSMNGDKKFDVIISYLEIYNERIYDLLESGLEESGSRISTPSRLYMSKSNSNGLGVELKIRDDSQYGVKVIGLTERRCESSEELLRWIAVGDKSRKIGETDYNARSSRSHAIVLIRLTSTNVKNGTSRSSTLSLCDLAGSERATGQQERRKEGSFINKSLLALGTVISKLSADKMNSVGSNIPSPSASGSSSSSGNATNNGTSPSNHIPYRDSKLTRLLQPALSGDSIVTTICTVDTRNDAAAETMNTLRFASRAKNVALHVSKKSIISNGNNDGDKDRTIELLRRQLEEQRRMISELKNRSNIGEPLTKSSNESTYKDIKATGNDGDPNLALMRAENRVLKYKLENCEKLLDKDVVDLQDSEIMEIVEMLPFEVGTLLETKFQGLESQIRQYRKYTQKLEDKIMALEKSGHTAMSLTGCDGTEVIELQKMLERKDKMIEALQSAKRLRDRALKPLINTQQSPHPVVDNDK
B2: Δ70-Kip2^13myc (domain or fragment, UniProt P28743 71-706)
chain: KSDPFLHPGRIRIRRSDSINNNSRKNDTYTGSITVTIRPKPRSVGTSRDHVGLKSPRYSQPRSNSHHGSNTFVRDPWFITNDKTIVHEEIGEFKFDHVFASHCTNLEVYERTSKPMIDKLLMGFNATIFAYGMTGSGKTFTMSGNEQELGLIPLSVSYLFTNIMEQSMNGDKKFDVIISYLEIYNERIYDLLESGLEESGSRISTPSRLYMSKSNSNGLGVELKIRDDSQYGVKVIGLTERRCESSEELLRWIAVGDKSRKIGETDYNARSSRSHAIVLIRLTSTNVKNGTSRSSTLSLCDLAGSERATGQQERRKEGSFINKSLLALGTVISKLSADKMNSVGSNIPSPSASGSSSSSGNATNNGTSPSNHIPYRDSKLTRLLQPALSGDSIVTTICTVDTRNDAAAETMNTLRFASRAKNVALHVSKKSIISNGNNDGDKDRTIELLRRQLEEQRRMISELKNRSNIGEPLTKSSNESTYKDIKATGNDGDPNLALMRAENRVLKYKLENCEKLLDKDVVDLQDSEIMEIVEMLPFEVGTLLETKFQGLESQIRQYRKYTQKLEDKIMALEKSGHTAMSLTGCDGTEVIELQKMLERKDKMIEALQSAKRLRDRALKPLINTQQSPHPVVDNDK
B3: Kip2^13myc variant with the SNIP motif mutated to SNSS (protein, UniProt P28743 1-706)
chain: MIQKMSPSLRRPSTRSSSGSSNSSQSPSVRSTSSFSNLTRNSIRSTSNSGSQSISASSTRSNSPLRSVSAKSDPFLHPGRIRIRRSDSINNNSRKNDTYTGSITVTIRPKPRSVGTSRDHVGLKSPRYSQPRSNSHHGSNTFVRDPWFITNDKTIVHEEIGEFKFDHVFASHCTNLEVYERTSKPMIDKLLMGFNATIFAYGMTGSGKTFTMSGNEQELGLIPLSVSYLFTNIMEQSMNGDKKFDVIISYLEIYNERIYDLLESGLEESGSRISTPSRLYMSKSNSNGLGVELKIRDDSQYGVKVIGLTERRCESSEELLRWIAVGDKSRKIGETDYNARSSRSHAIVLIRLTSTNVKNGTSRSSTLSLCDLAGSERATGQQERRKEGSFINKSLLALGTVISKLSADKMNSVGSNIPSPSASGSSSSSGNATNNGTSPSNHIPYRDSKLTRLLQPALSGDSIVTTICTVDTRNDAAAETMNTLRFASRAKNVALHVSKKSIISNGNNDGDKDRTIELLRRQLEEQRRMISELKNRSNIGEPLTKSSNESTYKDIKATGNDGDPNLALMRAENRVLKYKLENCEKLLDKDVVDLQDSEIMEIVEMLPFEVGTLLETKFQGLESQIRQYRKYTQKLEDKIMALEKSGHTAMSLTGCDGTEVIELQKMLERKDKMIEALQSAKRLRDRALKPLINTQQSPHPVVDNDK

The test addresses T1, ^HABim1 (S. cerevisiae). Put plainly: co-IP; ^HABim1 precipitated overnight with anti-HA antibody and protein-A-Sepharose from extracts of kip2Δ or kip2Δ bik1Δ yeast cells expressing plasmid-borne Kip2^13myc variants; 50 mM Tris pH 7.6, 150 mM NaCl, 1 mM MgCl2, 0.1% NP-40; blots with anti-HA and anti-Myc.
For the molecule B1, the binding entry is on record as “binds weakly”.

As for B2, the binding entry is recorded as “binds weakly”.

Regarding B3, the binding result is listed as “no binding”.
